The name of at least one read-out is uncertain.
Assay: Nebulization recovery (ProNeb Ultra, cold trap, mass spectrometry)
Format: physicochemical
Conditions: 2 mg/ml and 10 mg/ml in ethanol/propylene glycol/water (85:10:5); both formulations

With `C[C@H]1[C@H](C)CC[C@]2(C(=O)O)CC[C@]3(C)C(=CC[C@@H]4[C@@]5(C)C[C@@H](O)[C@H](O)[C@@](C)(CO)[C@@H]5[C@H](O)C[C@]43C)[C@H]12` [Madecassic acid, madecassic acid] as the molecule, how does the recovery after nebulization read?
The recovery after nebulization was “recovered from both formulations”.
